Experimental findings from publication PMC6443775 are described below.

Protein sequences, listed by entry. Tags and fused reporters are not part of them. Residues count along the entry.
UniProt P19793, residues 86-462: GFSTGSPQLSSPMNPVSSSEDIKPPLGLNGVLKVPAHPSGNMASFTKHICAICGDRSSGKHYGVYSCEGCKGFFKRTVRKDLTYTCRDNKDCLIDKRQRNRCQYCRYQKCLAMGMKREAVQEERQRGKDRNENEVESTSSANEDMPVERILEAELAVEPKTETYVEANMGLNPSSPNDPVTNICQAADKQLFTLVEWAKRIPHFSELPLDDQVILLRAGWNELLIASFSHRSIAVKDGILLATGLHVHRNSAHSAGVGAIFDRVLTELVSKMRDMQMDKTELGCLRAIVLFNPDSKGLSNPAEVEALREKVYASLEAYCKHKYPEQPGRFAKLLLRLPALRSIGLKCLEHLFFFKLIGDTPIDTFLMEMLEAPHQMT

The target of this experiment is T1, TRAF6, endogenous in mouse macrophages (mouse (endogenous in BMDMs and RAW264.7)) (UniProt P70196).
T1 sequence: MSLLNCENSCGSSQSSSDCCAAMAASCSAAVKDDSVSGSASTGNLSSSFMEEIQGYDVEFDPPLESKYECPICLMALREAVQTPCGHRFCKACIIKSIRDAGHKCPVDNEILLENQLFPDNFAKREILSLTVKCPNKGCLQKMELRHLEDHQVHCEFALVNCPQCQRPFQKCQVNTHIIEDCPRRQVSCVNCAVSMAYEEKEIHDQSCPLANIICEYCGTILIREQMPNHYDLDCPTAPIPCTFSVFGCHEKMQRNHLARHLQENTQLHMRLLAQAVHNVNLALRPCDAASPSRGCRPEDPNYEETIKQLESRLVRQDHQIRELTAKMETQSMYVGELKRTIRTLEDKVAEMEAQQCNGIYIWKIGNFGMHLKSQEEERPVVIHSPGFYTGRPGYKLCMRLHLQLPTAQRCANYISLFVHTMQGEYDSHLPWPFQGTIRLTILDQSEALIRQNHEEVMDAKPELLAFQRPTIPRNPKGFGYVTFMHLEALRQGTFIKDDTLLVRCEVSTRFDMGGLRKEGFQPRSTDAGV
The experiment is described as follows: co-IP; lysates of WT- and tRXRα-BMDMs, with or without LPS (50 ng/ml, 15 min); immunoprecipitation with anti-TRAF6 antibody, immunoblotting. In general terms: Immunoblotting shows a protein as a band on a membrane.

Results are given in words; binding and its absence hold for the method and conditions named. In cells and extracts the contact can be indirect. Some results given as binding are weak or reduced against the parent protein; the word gives no strength.

Take “truncated retinoid X receptor α (tRXRα), transgene of Tg-tRXRα mice (from UniProt P19793 86-462) (domain or fragment)”: the binding entry is “binds”.
